At least one compound was matched to its structure with a doubt left.
Assay: Delivery of cG-2-AllylP into the brain after oral administration (CSF, blood, brain exposure)
Assay type: in vivo, Sprague Dawley rats
Conditions: rat
Experimental: In an in vivo study, male Sprague Dawley rats (aged 14 weeks) received a single dose of cG-2-AllylP, either 100 mg/kg or 200 mg/kg by oral gavage. Cerebrospinal fluid (CSF) and whole blood were collected at 1.5 and 4 hours postdose, and brain tissue was collected at 4 hours postdose to evaluate cG-2-AllylP exposure.

C=CC[C@]12CCCN1C(=O)CNC2=O [cG-2-AllylP, (8aS)-Allyl-hexahydropyrrolo[1,2-a]pyrazine-1,4-dione]
Mean Test Article Exposure ratio 200:100 mg/kg, Blood (1.5 h postdose): 1.98:1
Mean Test Article Exposure ratio 200:100 mg/kg, CSF (1.5 h postdose): 2.03:1
Mean Test Article Exposure ratio 200:100 mg/kg, Blood (4 h postdose): 2.19:1
Mean Test Article Exposure ratio 200:100 mg/kg, Brain (4 h postdose): 1.63:1
Mean Test Article Exposure ratio 200:100 mg/kg, CSF (4 h postdose): 2.25:1

Reference: patent US12472177B2, “Bicyclic compounds and methods for their use in treating Pitt Hopkins syndrome” (NEUREN PHARMACEUTICALS LIMITED, priority 2019, dated 2025)
